About 7,700 (2.3%) of roughly 330,000 compounds were called active. This list was built around the results that the source calls inconclusive (neither active nor inactive); the mix of calls is not that of the screen. The call rests on the fitted dose curve; in most records, active means well fitted inhibition curve with a large enough effect; inconclusive means small, poorly fitted or top-dose-only effect, or effect the other way; inactive means flat fitted curve, though single readings scatter. Potencies beside an inconclusive call are fits to weak or partial responses and may not hold up.
Assay: qHTS screen for small molecules that inhibit ELG1-dependent DNA repair in human embryonic kidney (HEK293T) cells expressing luciferase-tagged ELG1; further: nearly all actives have a fitted effect of over 55% in size
Details: HEK293T ELG1-luciferase reporter, luminescence, 16 h, DNA damage induced by 5-fluorouridine; activity change, negative = inhibition: at 46.1 µM (top of the series)
Procedure, shortened: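 Luminescence from the luciferase reporter, measured 30 min after ONE-Glo reagent at room temperature, was the read-out. Beforehand, 2,000 cells per well were exposed for 16 hr at 37 °C to 5-fluorouridine together with compound or vehicle.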
On the % scale 0 is the no-effect control and ±100 the full control effect; potency means the concentration at half of the fitted maximal effect.

Compound	Potency	activity change, negative = inhibition
N[C@@H](CO)c1nnc([C@H](CC(=O)O)NC(=O)C2CCNCC2)o1	inconclusive: 23.1 µM [activator, partial curve, poor fit]	–
CCOC(=O)c1ccc(NC(=O)Nc2ccccn2)cc1	inconclusive: 8.2 µM [activator, partial curve]	–
CC(=O)Nc1ccc(Nc2ccc(S(=O)(=O)C(F)(F)F)cc2[N+](=O)[O-])cc1	–	inactive: -28.7%
CC12CCC(=O)N1C(C(=O)NNC(=O)c1cccc(Cl)c1)CS2 (stereo unspecified)	–	inactive: 15.4%
CCCCCCSc1nnc(N)s1	inconclusive: 14.6 µM [activator, partial curve, poor fit]	–
CCOC(CNC(=O)Cc1c(C)nc2c(-c3ccccc3)c(C)nn2c1C)OCC	–	inactive: 0%
COc1cccc(CNC(=O)C2CCCN(c3nc4ccccc4o3)C2)c1 (stereo unspecified)	inconclusive: 13 µM [inhibitor, partial curve, poor fit]	–
CCCc1cc(=O)oc2cc(OCC(=O)NCCCN3CCOCC3)ccc12	–	inactive: 29.8%
S=C(NCC1CCCO1)Nc1ccc(Cl)c(Cl)c1 (stereo unspecified)	–	inactive: 7.22%
CCOCCn1cnc2sc(C(=O)NCC(=O)OCC)c(C)c2c1=O	inconclusive: 18.4 µM [activator, single point]	–
Cc1ccc(C(=O)NCCSc2ccc(Cl)cc2)cc1S(=O)(=O)Nc1ccccc1	active: 20.6 µM	–
O=C(NCCCN1CCOCC1)c1ccc2c(c1)N(Cc1cccc(Cl)c1)C(=O)CS2	–	inactive: 3.11%
Cc1cc(C)c2nc(NNC(=O)c3ccc(S(=O)(=O)N4CCCC(C)C4)cc3)sc2c1 (stereo unspecified)	inconclusive: 8.2 µM [inhibitor, partial curve]	–
O=C(OCc1ccccc1Cl)c1ccc(-n2cnnc2)cc1	inconclusive: 0.651 µM [inhibitor, partial curve, poor fit]	–
COc1ccc(C2CC(c3ccccc3)=NN2C(=O)COC(=O)c2cc(S(=O)(=O)N3CCOCC3)ccc2Cl)cc1 (stereo unspecified)	inconclusive: 6.51 µM [inhibitor, single point]	–
Cc1ccc2occ(CN3CCN(Cc4ccccc4)CC3)c(=O)c2c1	inconclusive: 23.1 µM [activator, partial curve]	–
CCN(Cc1nc2ccccc2c(=O)[nH]1)Cc1cc(=O)oc2cc(OC)ccc12	inconclusive: 18.4 µM [inhibitor, partial curve, poor fit]	–
COc1ccc2cc(C[C@@H]3CC[C@@H](CNC(N)=O)O3)ccc2c1	inconclusive: 14.6 µM [activator, partial curve]	–
N=c1c2c(n(Cc3ccc(F)cc3)c3c1CCC3)CCC2	inconclusive: 29.1 µM [inhibitor, single point]	–
O=C(NNC(=O)C1[C@H]2CCCC[C@@H]12)NC1CCCCC1 (stereo partly specified)	inconclusive: 23.1 µM [activator, single point]	–
Cc1ccc(-c2csc3nc(CN(C)Cc4ccccc4)[nH]c(=O)c23)cc1	–	inactive: -12.2%
COc1cc(NC(=S)NC(=O)c2ccccc2F)ccc1NC(=O)c1ccco1	–	inactive: 6.84%
CCOc1cccc(C(=O)Nc2ccccc2N2CCN(C(=O)C(C)C)CC2)c1	inconclusive: 31.6 µM [inhibitor, single point]	–
FC(F)(F)c1cc(CCN2C(=S)NC[C@@H]2c2ccccc2)cc(C(F)(F)F)c1	–	inactive: -15.1%

Compound	Potency	activity change, negative = inhibition
CC(C)(C)C(=O)CC(=O)Nc1ccc(Cl)c(N)c1	inconclusive: 11.6 µM [activator, partial curve]	–
Cc1cc(=O)cc(C)n1-c1ccc2c(c1)nc(C)n2-c1ccccc1	inconclusive: 13 µM [inhibitor, partial curve]	–
C=CCS/C(N)=N\N=C\c1c(O)ccc2ccccc12	inconclusive: 10.3 µM [activator, partial curve]	–
COc1ccc(CCNC(=O)CSc2nc(C)cc(C)n2)cc1OC	–	inactive: -1.72%
COc1cccc(NC(=O)NC2CCN(CC(=O)Nc3ccccc3[N+](=O)[O-])CC2)c1	active: 20.6 µM	–
CN(CC(=O)Nc1cccc(F)c1)C(=O)Cn1cnc2c1c(=O)n(C)c(=O)n2C	inconclusive: 29.1 µM [activator, single point]	–
CCCCC(=O)Nc1ccc(C(=O)NCCc2ccccc2)cc1	inconclusive: 20.6 µM [activator, partial curve]	–
O=C(Nc1ccc(F)cc1)C1C(c2ccccc2)C1(Cl)Cl (stereo unspecified)	–	inactive: 0.175%
N/C(=N\OC(=O)/C=C/c1ccccc1Cl)c1ccccn1	inconclusive: 1.46 µM [activator, partial curve]	–
CCOC(=O)c1c(CN2CCCCC2C)oc2ccc(OC)cc12 (stereo unspecified)	inconclusive: 25.9 µM [inhibitor, single point]	–
CCOc1ccc(CSCCNC(=S)Nc2ccccc2)cc1	inconclusive: 25.9 µM [inhibitor, partial curve, poor fit]	–
C#CCOCCOCCOCCNc1nc(N2CCN(C(=O)[C@H](CCCCN)n3cc(CCC(=O)O)nn3)CC2)nc(N2CCN(C(=O)[C@H](CCCCN)n3cc(CC(C)O)nn3)CC2)n1 (stereo partly specified)	inconclusive: 22.4 µM [activator, single point]	–
CCn1cnc2cc(NC(=O)c3ccc(C)cc3)ccc21	inconclusive: 9.2 µM [activator, partial curve]	–
CC(C)(CO)[C@@H](O)C(=O)NCCC(=O)O	–	inactive: 8.58%
N#C/C(=C\c1ccc([N+](=O)[O-])o1)C(=O)Nc1ccc(F)cc1	inconclusive: 20.6 µM [activator, single point]	–
COc1ccc(-c2cn[nH]c2-c2ccc(OCC(=O)NN)cc2O)cc1	inconclusive: 20.6 µM [inhibitor, partial curve]	–
C#CCN1C(=O)S/C(=C\c2cc3c(cc2OC)OCO3)C1=O	–	inactive: 16.7%
Cc1ccc(-n2cc(CN3CCC(CO)(Cc4cccc(C(F)(F)F)c4)CC3)cn2)cc1	–	inactive: 7.24%
COCCCNC(=O)C(C)N1c2cccc3cccc(c23)S1(=O)=O (stereo unspecified)	–	inactive: -0.342%
Cc1cc(CC(C)C)n(-c2nc3ccccc3c(=O)n2OCC(=O)N(C)C)n1	inconclusive: 20.6 µM [activator, partial curve]	–
CC1COC(=O)C(NNc2ccc(Cl)c(Cl)c2)=N1 (stereo unspecified)	inconclusive: 29.1 µM [inhibitor, single point]	–
O=C(COc1cccc2cccnc12)Nc1cccc(S(=O)(=O)N2CCCC2)c1	inconclusive: 31.6 µM [inhibitor, single point]	–
O=C(NCCOc1ccccc1Cl)c1ncn[nH]1	inconclusive: 29.1 µM [activator, single point]	–
Cc1cc(C)nc(N2CCCC(C(=O)Nc3nnc(C)s3)C2)n1 (stereo unspecified)	–	inactive: 3.02%

Retrieved by structure from the list above, 2 records:
Compound	Potency	activity change, negative = inhibition
C#CCN1C(=O)S/C(=C\c2cc3c(cc2OC)OCO3)C1=O	–	inactive: 16.7%
COc1cccc(NC(=O)NC2CCN(CC(=O)Nc3ccccc3[N+](=O)[O-])CC2)c1	active: 20.6 µM	–

(more compounds)

Compound	Potency	activity change, negative = inhibition
Cc1cc(NCCCN2CCOCC2)n2nc(C)c(-c3ccc(F)cc3)c2n1	–	inactive: 0.217%
N#CCCn1cc(/C=N/O)c(-c2ccc(Cl)cc2)n1	–	inactive: -4.4%
CN(CCOc1ccc(Cl)cc1)Cc1cccc(S(=O)(=O)N(C)C)c1	inconclusive: 16.4 µM [inhibitor, partial curve]	–
COc1cc(/C=N/NC(=O)CCc2c(C)n[nH]c2C)cc(OC)c1OC	inconclusive: 32.6 µM [inhibitor, single point]	–
Cc1cc(C)c(C#N)c(Sc2ccccc2N)n1	inconclusive: 20.6 µM [activator, single point]	–
Cc1ccc(NCc2nnc(SCC(N)=O)n2CC2CCCO2)c(C)c1 (stereo unspecified)	inconclusive: 25.9 µM [activator, single point]	–
CC(C)(C)c1ccc(-n2nc(C#N)c(Cl)cc2=O)cc1	–	inactive: -12.3%
COc1ccc(Nc2nc(N3CCOCC3)nc(N3CCOCC3)n2)cc1Cl	active: 5.62 µM	–
CCOC(=O)Cn1c(=O)c2c(nc(Br)n2Cc2ccc(Cl)cc2)n(C)c1=O	inconclusive: 5.8 µM [inhibitor, partial curve, poor fit]	–
O=C1C(=O)N(c2ccc(O)cc2)C(c2ccccc2[N+](=O)[O-])/C1=C(\O)c1ccccc1 (stereo unspecified)	–	inactive: 0.175%
O=C(N/N=C/c1ccccc1F)C(=O)N1CCCCCC1	inconclusive: 18.3 µM [activator, partial curve]	–
CSCCC(NC(=O)COc1ccccc1)C(=O)N(C)Cc1ccc(SC)cc1 (stereo unspecified)	inconclusive: 29.1 µM [inhibitor, single point]	–
C=CCn1c(=NC(=O)c2ccccc2[N+](=O)[O-])sc2cc(S(C)(=O)=O)ccc21	inconclusive: 16.4 µM [inhibitor, single point]	–
Cc1ccsc1C(=O)OCC(=O)N1CC(C)CC(C)C1 (stereo unspecified)	–	inactive: 17.8%
CCCCCC(=O)NNC(=O)c1ccc(-c2ccccc2)cc1	–	inactive: 2.3%
Clc1ccc(/C=N/NC(=Nc2ccccc2)c2ccccn2)c(Cl)c1	inconclusive: 14.6 µM [activator, partial curve]	–
CCCNC(=O)c1onc(CSc2ccc(Cl)cc2)c1C(=O)NC(C)C	–	inactive: -12.2%
Cc1ccc(N=CC=C2OC(C)(C)C(C)(C)O2)c(C)c1	inconclusive: 2.91 µM [inhibitor, partial curve, poor fit]	–
Oc1ccccc1-c1cc(C(F)(F)F)[nH]n1	–	inactive: -20.6%
COC(=O)C1=C(C(=O)OC)[C@@H]2N(Cc3ccccc3)c3ccccc3[C@@]23C[C@@H](C(=O)OC)N(C(=O)COCc2ccccc2)C3=N1	inconclusive: 16.4 µM [inhibitor, partial curve, poor fit]	–
O=C(/C=C/c1cc(Br)ccc1F)Nc1cccnc1	inconclusive: 16.4 µM [activator, single point]	–
Cc1nn(CCOc2ccccc2)c(=O)n1-c1ccc(Cl)cc1	inconclusive: 23.1 µM [activator, partial curve]	–
CN1CCN(C(=O)CCCOc2cc(=O)n(C)c3ccccc23)CC1	inconclusive: 29.1 µM [activator, single point]	–

A draw from above in order of heavy-atom count, rising:
Compound	Potency	activity change, negative = inhibition
Cc1ccsc1C(=O)OCC(=O)N1CC(C)CC(C)C1 (stereo unspecified)	–	inactive: 17.8%
CSCCC(NC(=O)COc1ccccc1)C(=O)N(C)Cc1ccc(SC)cc1 (stereo unspecified)	inconclusive: 29.1 µM [inhibitor, single point]	–
COC(=O)C1=C(C(=O)OC)[C@@H]2N(Cc3ccccc3)c3ccccc3[C@@]23C[C@@H](C(=O)OC)N(C(=O)COCc2ccccc2)C3=N1	inconclusive: 16.4 µM [inhibitor, partial curve, poor fit]	–
